Results from the supplement of paper PMC10849652.
The other results are listed elsewhere or left out.

Protein sequences, listed by entry. Tags and fused reporters are not part of them. Lines headed by an entry give the natural chain unless they say otherwise; changes in a name come on top.
UniProt Q7L099: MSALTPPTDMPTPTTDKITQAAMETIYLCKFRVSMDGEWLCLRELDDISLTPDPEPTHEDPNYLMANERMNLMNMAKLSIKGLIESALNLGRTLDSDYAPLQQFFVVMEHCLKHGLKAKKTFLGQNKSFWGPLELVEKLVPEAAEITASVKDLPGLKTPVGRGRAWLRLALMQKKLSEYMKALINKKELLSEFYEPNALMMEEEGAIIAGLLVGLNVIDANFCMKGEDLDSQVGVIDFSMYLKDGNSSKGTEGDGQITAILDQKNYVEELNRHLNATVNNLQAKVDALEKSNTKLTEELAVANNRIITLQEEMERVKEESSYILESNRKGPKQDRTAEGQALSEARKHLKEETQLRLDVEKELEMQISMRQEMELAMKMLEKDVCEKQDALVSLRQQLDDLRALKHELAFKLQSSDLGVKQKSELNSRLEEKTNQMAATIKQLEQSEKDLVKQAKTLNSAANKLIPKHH
UniProt P21817: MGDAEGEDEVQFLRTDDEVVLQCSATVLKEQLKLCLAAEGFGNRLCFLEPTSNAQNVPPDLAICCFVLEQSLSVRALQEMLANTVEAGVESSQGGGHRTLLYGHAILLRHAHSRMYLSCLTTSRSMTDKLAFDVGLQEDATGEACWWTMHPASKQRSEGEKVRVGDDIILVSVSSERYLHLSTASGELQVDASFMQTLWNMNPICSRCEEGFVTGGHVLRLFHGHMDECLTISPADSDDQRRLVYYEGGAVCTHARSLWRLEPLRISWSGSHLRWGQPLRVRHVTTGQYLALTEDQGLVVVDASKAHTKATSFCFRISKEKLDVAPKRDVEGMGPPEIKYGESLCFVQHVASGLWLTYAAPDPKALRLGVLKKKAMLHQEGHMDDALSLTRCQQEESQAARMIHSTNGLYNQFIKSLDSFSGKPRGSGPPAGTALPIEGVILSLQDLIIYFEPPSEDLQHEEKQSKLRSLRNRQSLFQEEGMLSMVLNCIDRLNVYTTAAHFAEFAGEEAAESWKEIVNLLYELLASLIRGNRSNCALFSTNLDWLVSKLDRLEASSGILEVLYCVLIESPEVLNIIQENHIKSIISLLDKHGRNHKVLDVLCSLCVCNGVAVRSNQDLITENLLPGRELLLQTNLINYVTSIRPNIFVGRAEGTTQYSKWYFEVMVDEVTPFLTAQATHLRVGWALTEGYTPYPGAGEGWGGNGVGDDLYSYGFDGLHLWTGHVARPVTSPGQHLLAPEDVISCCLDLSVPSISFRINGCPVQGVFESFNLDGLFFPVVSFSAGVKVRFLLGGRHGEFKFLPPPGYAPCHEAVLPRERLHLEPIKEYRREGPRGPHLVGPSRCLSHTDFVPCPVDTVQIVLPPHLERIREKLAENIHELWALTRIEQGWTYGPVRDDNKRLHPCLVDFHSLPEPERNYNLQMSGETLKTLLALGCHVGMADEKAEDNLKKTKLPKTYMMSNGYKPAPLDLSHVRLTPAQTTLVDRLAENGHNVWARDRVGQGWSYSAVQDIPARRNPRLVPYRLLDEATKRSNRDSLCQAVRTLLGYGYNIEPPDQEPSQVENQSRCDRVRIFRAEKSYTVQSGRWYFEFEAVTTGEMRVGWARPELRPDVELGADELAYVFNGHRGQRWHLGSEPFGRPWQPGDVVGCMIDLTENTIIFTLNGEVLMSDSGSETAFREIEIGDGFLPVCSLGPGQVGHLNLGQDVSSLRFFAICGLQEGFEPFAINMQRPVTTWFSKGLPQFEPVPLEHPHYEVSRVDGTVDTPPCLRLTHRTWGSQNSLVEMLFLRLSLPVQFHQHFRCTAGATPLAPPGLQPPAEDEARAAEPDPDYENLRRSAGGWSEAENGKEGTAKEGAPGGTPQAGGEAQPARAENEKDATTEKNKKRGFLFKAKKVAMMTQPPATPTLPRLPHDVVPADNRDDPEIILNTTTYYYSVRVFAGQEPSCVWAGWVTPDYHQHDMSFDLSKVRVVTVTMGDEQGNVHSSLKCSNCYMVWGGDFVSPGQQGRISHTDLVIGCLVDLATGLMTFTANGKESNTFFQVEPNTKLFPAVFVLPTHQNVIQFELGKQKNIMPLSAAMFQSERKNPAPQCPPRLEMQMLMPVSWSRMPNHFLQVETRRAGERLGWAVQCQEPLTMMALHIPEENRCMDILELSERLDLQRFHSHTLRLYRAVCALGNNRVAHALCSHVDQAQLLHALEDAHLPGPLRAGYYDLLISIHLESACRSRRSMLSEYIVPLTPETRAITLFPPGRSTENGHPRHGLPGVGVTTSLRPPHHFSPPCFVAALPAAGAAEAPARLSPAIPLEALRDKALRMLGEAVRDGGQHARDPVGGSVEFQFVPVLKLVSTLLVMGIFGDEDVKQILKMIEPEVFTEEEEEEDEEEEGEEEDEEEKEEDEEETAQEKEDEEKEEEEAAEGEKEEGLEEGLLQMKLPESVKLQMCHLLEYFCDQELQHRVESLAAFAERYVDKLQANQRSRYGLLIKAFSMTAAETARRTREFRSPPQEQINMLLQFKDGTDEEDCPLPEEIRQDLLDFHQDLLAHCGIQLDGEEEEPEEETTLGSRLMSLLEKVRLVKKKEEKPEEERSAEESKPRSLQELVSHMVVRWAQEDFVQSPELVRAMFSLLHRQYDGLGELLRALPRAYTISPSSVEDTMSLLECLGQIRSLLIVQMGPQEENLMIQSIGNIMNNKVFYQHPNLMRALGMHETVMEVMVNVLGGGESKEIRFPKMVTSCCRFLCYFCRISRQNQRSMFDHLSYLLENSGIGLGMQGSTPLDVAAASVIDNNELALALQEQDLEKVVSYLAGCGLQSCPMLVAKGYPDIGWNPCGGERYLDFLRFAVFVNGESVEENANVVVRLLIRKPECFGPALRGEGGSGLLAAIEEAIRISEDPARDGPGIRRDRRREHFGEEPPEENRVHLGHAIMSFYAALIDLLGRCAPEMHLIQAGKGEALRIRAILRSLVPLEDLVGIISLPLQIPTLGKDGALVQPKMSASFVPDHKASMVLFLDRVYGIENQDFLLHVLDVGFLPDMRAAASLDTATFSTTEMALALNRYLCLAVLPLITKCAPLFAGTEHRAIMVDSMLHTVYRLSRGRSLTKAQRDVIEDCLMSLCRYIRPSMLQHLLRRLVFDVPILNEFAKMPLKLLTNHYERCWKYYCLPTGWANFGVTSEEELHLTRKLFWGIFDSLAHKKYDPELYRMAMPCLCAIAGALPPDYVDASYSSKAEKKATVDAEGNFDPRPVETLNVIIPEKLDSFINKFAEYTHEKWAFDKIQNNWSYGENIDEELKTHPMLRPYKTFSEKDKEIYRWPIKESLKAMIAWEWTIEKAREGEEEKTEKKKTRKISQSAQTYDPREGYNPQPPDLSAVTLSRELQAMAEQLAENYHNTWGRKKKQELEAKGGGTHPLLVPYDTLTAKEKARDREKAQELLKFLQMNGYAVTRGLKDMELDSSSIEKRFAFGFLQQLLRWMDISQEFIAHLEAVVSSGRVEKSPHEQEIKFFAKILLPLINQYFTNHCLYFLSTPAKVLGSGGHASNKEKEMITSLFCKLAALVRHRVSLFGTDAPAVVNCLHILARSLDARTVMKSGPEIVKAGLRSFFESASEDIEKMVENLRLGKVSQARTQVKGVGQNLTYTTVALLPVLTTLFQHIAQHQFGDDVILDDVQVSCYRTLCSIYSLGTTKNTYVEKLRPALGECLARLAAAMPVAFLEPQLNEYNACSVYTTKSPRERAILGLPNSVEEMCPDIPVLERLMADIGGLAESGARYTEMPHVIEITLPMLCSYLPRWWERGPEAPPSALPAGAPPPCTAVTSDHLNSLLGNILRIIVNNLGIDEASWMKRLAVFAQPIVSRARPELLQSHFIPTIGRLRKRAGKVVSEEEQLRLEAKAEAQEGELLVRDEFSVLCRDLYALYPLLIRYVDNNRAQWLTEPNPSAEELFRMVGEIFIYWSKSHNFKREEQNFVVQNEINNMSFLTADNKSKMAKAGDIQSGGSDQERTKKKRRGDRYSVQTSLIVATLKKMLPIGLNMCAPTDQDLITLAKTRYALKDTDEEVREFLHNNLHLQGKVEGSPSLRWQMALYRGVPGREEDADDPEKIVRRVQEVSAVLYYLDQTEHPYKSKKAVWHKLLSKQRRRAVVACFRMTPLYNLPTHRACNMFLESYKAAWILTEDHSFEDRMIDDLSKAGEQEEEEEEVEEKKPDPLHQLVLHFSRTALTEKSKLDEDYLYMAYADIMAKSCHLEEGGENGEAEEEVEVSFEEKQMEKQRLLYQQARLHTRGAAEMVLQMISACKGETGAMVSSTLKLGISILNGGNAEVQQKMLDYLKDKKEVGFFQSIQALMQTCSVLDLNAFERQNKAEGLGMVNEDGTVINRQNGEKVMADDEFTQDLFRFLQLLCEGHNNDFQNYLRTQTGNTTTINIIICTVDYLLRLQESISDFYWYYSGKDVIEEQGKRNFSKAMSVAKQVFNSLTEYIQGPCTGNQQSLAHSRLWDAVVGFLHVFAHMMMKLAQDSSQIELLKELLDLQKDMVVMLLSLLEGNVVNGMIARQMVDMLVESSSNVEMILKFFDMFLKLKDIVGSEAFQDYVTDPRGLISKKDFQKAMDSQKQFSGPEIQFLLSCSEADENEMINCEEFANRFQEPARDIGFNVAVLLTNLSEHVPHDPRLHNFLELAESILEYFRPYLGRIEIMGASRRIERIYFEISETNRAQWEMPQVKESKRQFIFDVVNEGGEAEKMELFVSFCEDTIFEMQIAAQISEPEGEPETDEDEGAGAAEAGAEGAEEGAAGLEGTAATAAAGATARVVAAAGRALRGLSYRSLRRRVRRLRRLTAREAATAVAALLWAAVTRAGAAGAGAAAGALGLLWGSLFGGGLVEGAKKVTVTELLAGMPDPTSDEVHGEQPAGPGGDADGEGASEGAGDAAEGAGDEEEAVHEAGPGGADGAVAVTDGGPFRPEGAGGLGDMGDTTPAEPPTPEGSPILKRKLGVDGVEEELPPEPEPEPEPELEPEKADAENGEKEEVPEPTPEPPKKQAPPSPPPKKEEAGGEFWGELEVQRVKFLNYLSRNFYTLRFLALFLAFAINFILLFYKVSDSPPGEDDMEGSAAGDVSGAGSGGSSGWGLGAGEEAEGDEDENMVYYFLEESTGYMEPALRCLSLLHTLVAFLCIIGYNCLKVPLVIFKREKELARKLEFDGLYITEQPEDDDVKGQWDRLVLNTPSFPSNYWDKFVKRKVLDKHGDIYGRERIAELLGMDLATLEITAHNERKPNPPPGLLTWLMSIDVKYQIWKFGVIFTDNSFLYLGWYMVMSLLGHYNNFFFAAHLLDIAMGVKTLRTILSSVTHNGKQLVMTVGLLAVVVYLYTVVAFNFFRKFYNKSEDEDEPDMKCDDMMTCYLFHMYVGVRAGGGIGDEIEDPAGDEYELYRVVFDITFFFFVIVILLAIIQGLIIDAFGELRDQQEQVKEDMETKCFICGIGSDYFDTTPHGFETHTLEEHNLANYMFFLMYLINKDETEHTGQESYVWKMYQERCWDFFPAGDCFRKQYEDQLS
UniProt Q15050: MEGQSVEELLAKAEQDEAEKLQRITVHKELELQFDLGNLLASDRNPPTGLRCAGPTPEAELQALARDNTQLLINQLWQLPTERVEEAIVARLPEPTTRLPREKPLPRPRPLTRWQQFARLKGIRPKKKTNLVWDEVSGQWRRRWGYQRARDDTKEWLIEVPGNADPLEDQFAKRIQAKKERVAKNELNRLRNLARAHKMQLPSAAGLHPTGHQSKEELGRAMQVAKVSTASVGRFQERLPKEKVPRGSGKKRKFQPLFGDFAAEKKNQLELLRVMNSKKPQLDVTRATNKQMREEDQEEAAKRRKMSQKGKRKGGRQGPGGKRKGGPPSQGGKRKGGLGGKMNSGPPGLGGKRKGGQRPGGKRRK
UniProt P29034: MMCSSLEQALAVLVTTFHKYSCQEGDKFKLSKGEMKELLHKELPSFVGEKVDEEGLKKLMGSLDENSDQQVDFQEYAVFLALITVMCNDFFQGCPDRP
UniProt Q15404: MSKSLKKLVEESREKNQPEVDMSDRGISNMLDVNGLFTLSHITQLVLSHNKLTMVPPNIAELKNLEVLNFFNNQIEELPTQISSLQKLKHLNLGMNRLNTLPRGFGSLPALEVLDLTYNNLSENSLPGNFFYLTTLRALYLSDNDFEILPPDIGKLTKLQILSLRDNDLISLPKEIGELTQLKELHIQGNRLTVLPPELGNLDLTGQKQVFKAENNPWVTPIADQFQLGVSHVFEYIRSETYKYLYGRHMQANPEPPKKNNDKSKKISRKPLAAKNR
UniProt Q7LG56, whole entry, looked up: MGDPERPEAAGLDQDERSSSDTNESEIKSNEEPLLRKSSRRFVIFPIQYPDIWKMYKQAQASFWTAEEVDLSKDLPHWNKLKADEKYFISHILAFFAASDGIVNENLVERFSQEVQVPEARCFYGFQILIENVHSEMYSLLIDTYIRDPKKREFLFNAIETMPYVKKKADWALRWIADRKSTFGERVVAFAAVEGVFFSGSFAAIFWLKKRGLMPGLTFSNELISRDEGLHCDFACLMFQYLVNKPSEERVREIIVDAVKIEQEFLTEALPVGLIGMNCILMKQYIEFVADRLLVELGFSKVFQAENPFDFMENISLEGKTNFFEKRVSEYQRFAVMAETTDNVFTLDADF

The targets below were run with CC1=C(C=C(C=C1)NC(=O)C2=CC(=CC=C2)C(C)(C)C#N)NC3=CC4=C(C=C3)N=CN(C4=O)C (assay: log2 fold change, soluble protein after heating vs DMSO (PISA); higher = thermal stabilisation; K562 lysate, 10 uM; active = over 0.2 and 3.5 SD of the protein, either way, in both replicates (recomputed)).
In short: (§1)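 Quantification was by TMTpro 16plex LC-MS/MS with equalised channel sums, applied to the supernatant after 21,000xg for 90 min. Samples were crude K562 extract at 1 mg/mL protein in PBS pH 7.4 with 1 mM MgCl2, treated with 10 μM compound for 30 min, heated for 3 min across 48°C-58°C, pooled and brought to 0.5% NP-40 at 4°C. Values are log-two fold changes in thermal stability relative to solvent controls, from duplicates.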

Row | Target | log2 fold change
1 | RPS27A (UniProt P62979) | inactive: 0.022
2 | RPP14 (UniProt O95059) | inactive: 0.058
3 | RUFY3 isoform 2 (UniProt Q7L099) | inactive: 0.02
4 | RPL36AL (UniProt Q969Q0) | inactive: -0.038
5 | RPSA (UniProt P08865) | inactive: 0.017
6 | RYR1 (UniProt P21817) | inactive: 0.195
7 | RPS23 (UniProt P62266) | inactive: -0.003
8 | RYBP (UniProt Q8N488) | inactive: 0.053
9 | RRP7A (UniProt Q9Y3A4) | inactive: -0.051
10 | RPS24 isoform 4 (UniProt P62847) | inactive: 0.008
11 | RPS28 (UniProt P62857) | inactive: -0.045
12 | RPS17 (UniProt P08708) | inactive: -0.034
13 | RSF1 (UniProt Q96T23) | inactive: -0.067
14 | RRM2 isoform 2 (UniProt P31350) | inactive: 0.035
15 | RRS1 (UniProt Q15050) | inactive: 0.032
16 | RPL39P5 (UniProt Q59GN2) | inactive: 0
17 | RXRB isoform 3 (UniProt P28702) | inactive: 0.011
18 | RPN1 (UniProt P04843) | inactive: 0.011
19 | RPP25L (UniProt Q8N5L8) | inactive: 0.064
20 | RWDD2B (UniProt P57060) | inactive: -0.109
21 | RPP25 (UniProt Q9BUL9) | inactive: -0.033
22 | RSAD1 (UniProt Q9HA92) | inactive: -0.021
23 | S100A2 (UniProt P29034) | inactive: 0.319
24 | RTN4IP1 (UniProt Q8WWV3) | inactive: -0.008
25 | RSU1 (UniProt Q15404) | inactive: -0.017
26 | RRM2B isoform 6 (UniProt Q7LG56) | inactive: 0.044
27 | RRN3 (UniProt Q9NYV6) | inactive: 0.032
28 | RPP21 isoform 4 (UniProt Q9H633) | inactive: 0.136
29 | S100A16 (UniProt Q96FQ6) | inactive: -0.004

What follows are targets tested with CC1=C(C=C(C=C1)NC(=O)C2=CC(=CC=C2)N(C)C)NC(=O)C3=CC=C(C=C3)O in the same assay as above.
In short: as §1

Row | Target | log2 fold change
30 | RPS27A (UniProt P62979) | inactive: -0.004
31 | RPP14 (UniProt O95059) | inactive: 0.008
32 | RUFY3 isoform 2 (UniProt Q7L099) | inactive: -0.153
33 | RPL36AL (UniProt Q969Q0) | inactive: 0.013
34 | RPSA (UniProt P08865) | inactive: 0.01
35 | RTTN (UniProt Q86VV8) | inactive: -0.004
36 | RYR1 (UniProt P21817) | inactive: -0.032
37 | RPS23 (UniProt P62266) | inactive: -0.024
38 | RYBP (UniProt Q8N488) | inactive: 0.063
39 | RRP7A (UniProt Q9Y3A4) | inactive: 0.059
40 | RPS24 isoform 4 (UniProt P62847) | inactive: 0.032
41 | RPS28 (UniProt P62857) | inactive: 0.003
42 | RPS17 (UniProt P08708) | inactive: 0.004
43 | RSF1 (UniProt Q96T23) | inactive: -0.002
44 | RRM2 isoform 2 (UniProt P31350) | inactive: -0.062
45 | RRS1 (UniProt Q15050) | inactive: 0.017
46 | RPL39P5 (UniProt Q59GN2) | inactive: 0.001
47 | RPN1 (UniProt P04843) | inactive: -0.002
48 | RPP25L (UniProt Q8N5L8) | inactive: -0.023
49 | RWDD2B (UniProt P57060) | inactive: 0.046
50 | S100A14 (UniProt Q9HCY8) | inactive: 0.058
51 | RPP25 (UniProt Q9BUL9) | inactive: 0.037
52 | RSAD1 (UniProt Q9HA92) | inactive: 0.086
53 | S100A2 (UniProt P29034) | inactive: -0.094
54 | RTN4IP1 (UniProt Q8WWV3) | inactive: -0.015
55 | RSU1 (UniProt Q15404) | inactive: -0.027
56 | RRM2B isoform 6 (UniProt Q7LG56) | inactive: -0.062
57 | RRN3 (UniProt Q9NYV6) | inactive: -0.018
58 | RPP21 isoform 4 (UniProt Q9H633) | inactive: -0.055

These targets were tested with CC1=CC=C(C=C1)SC2=C3C=C(SC3=CN=C2)C(=O)N in the same assay as above.
In short: as §1

Row | Target | log2 fold change
59 | RPS27A (UniProt P62979) | inactive: 0.018
60 | RPP14 (UniProt O95059) | inactive: 0.008
61 | RUFY3 isoform 2 (UniProt Q7L099) | inactive: 0.008
62 | RPL36AL (UniProt Q969Q0) | inactive: 0.052
63 | RPSA (UniProt P08865) | inactive: 0.012
64 | RTTN (UniProt Q86VV8) | inactive: 0.112
65 | RYR1 (UniProt P21817) | inactive: 0.013
66 | RPS23 (UniProt P62266) | inactive: 0.035
67 | RYBP (UniProt Q8N488) | inactive: -0.053
68 | RRP7A (UniProt Q9Y3A4) | inactive: -0.035
69 | RPS24 isoform 4 (UniProt P62847) | inactive: 0.016
70 | RPS28 (UniProt P62857) | inactive: -0.065
71 | RPS17 (UniProt P08708) | inactive: 0.037
72 | RSF1 (UniProt Q96T23) | inactive: -0.026
73 | RRM2 isoform 2 (UniProt P31350) | inactive: -0.018
74 | RRS1 (UniProt Q15050) | inactive: 0.009

Row | Target | log2 fold change
75 | RPL39P5 (UniProt Q59GN2) | inactive: 0.018
76 | RXRB isoform 3 (UniProt P28702) | inactive: -0.109
77 | RPN1 (UniProt P04843) | inactive: 0.001
78 | RPP25L (UniProt Q8N5L8) | inactive: -0.095
79 | RPS7, A0A2R8Y623 | inactive: -0.017
80 | RWDD2B (UniProt P57060) | inactive: 0.006
81 | S100A14 (UniProt Q9HCY8) | inactive: -0.001
82 | RPP25 (UniProt Q9BUL9) | inactive: -0.028
83 | RSAD1 (UniProt Q9HA92) | inactive: -0.099
84 | S100A2 (UniProt P29034) | inactive: -0.107
85 | RTN4IP1 (UniProt Q8WWV3) | inactive: -0.033
86 | RSU1 (UniProt Q15404) | inactive: -0.012
87 | RRM2B isoform 6 (UniProt Q7LG56) | inactive: -0.03
88 | RRN3 (UniProt Q9NYV6) | inactive: 0.081
89 | RPP21 isoform 4 (UniProt Q9H633) | inactive: -0.036
90 | S100A16 (UniProt Q96FQ6) | inactive: 0.002
